From PubChem BioAssay AID504467 (National Center for Advancing Translational Sciences (NCATS), 2011)
Among all 330,000 compounds or so, about 7,700 (2.3%) were called active. Inconclusive results, whose numbers are uncertain, are shown with a selection of clear calls. The call rests on the fitted dose curve; in most records, active means well fitted inhibition curve with a large enough effect; inconclusive means small, poorly fitted or top-dose-only effect, or effect the other way; inactive means flat fitted curve, though single readings scatter. Potencies beside an inconclusive call are fits to weak or partial responses and may not hold up.
Potency means the concentration at half of the fitted maximal effect.

Experiment: qHTS screen for small molecules that inhibit ELG1-dependent DNA repair in human embryonic kidney (HEK293T) cells expressing luciferase-tagged ELG1; further: nearly all actives have a fitted effect of over 55% in size
Conditions: HEK293T ELG1-luciferase reporter, luminescence, 16 h, DNA damage induced by 5-fluorouridine; series mostly up to 46.1 µM
Method in brief: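 In this reporter screen, reduction of luminescence relative to DMSO vehicle indicated activity. Compounds and 5-fluorouridine were added together to 2,000 cells per well, incubated for 16 hr at 37 °C, then developed with ONE-Glo.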
With `O=C(CNS(=O)(=O)c1ccc(Br)s1)N1CCN(c2ccc(F)cc2)CC1` the Potency was “inactive”. For `CCOc1ccc(C(=O)Nc2cc(-c3nc4ccccc4[nH]3)ccc2C)cc1[N+](=O)[O-]`, the Potency was active: 23.1 µM. In the case of `CCC(C)/C(C)=N/Nc1ccc(S(N)(=O)=O)cc1[N+](=O)[O-]` (configuration not stated), the Potency is reported as inconclusive: 14.6 µM [inhibitor, partial curve]. In the case of `O=C(CNS(=O)(=O)c1c(Cl)cccc1Cl)OCc1csc(-c2ccccc2)n1`, the Potency is reported as “inactive”. In the case of `O=C(C[N+]1(CC#Cc2ccccc2)CCOCC1)c1ccccc1`, the Potency is reported as “inactive”. In the case of `O=C(NCc1ccc(Cl)cc1)c1cc(=O)[nH]c2ccccc12`, the Potency is reported as inconclusive: 18.3 µM [activator, partial curve, poor fit]. For `CCn1c(NCc2ccccc2NS(=O)(=O)c2ccc(C)cc2)nc2ccccc21`, the Potency was “inactive”. With `N/C(=N\OCc1ccc([N+](=O)[O-])cc1)c1ccccn1` the Potency was inconclusive: 0.231 µM [activator, partial curve]. With `CC(=C/c1ccccc1)/C=N/NC(=O)c1ccccn1` the Potency was inconclusive: 1.64 µM [activator, full curve]. With `Cc1oc2ccc(OC(=O)c3cccs3)cc2c1C(=O)OC(C)C` the Potency was inconclusive: 18.4 µM [activator, partial curve]. In the case of `Cc1cc(C)c2oc(C(=O)NCCc3ccc(S(N)(=O)=O)cc3)cc(=O)c2c1`, the Potency is reported as “inactive”. With `CCOc1ccc(NC(=O)/C(C#N)=C/c2cn(CC(=O)O)c3ccccc23)cc1` the Potency was inconclusive: 29.1 µM [inhibitor, single point]. In the case of `CCOc1ccc(OCCCC(=O)Nc2cc(Cl)ccc2-n2cncn2)cc1`, the Potency is reported as inconclusive: 25.9 µM [inhibitor, partial curve, poor fit]. With `Cc1cccc(NC(=O)CCOc2ccccc2)c1` the Potency was inconclusive: 16.4 µM [activator, partial curve]. For `O=C(NC(=S)Nc1ccc(Cc2ccncc2)cc1)c1ccccc1`, the Potency was “inactive”. For `CCCC(=O)Nc1cccc(-c2nc3ccccc3o2)c1`, the Potency was “inactive”. With `COC(=O)c1ccc2c(c1)c(C#Cc1ccccc1)c(-c1ccccc1)n2C` the Potency was inconclusive: 4.11 µM [inhibitor, full curve]. For `O=c1[nH]c(/C=C/c2ccccc2[N+](=O)[O-])nc2ccccc12`, the Potency was inconclusive: 5.8 µM [activator, partial curve]. With `COCCNC(=O)c1ccc2c3n(nc2c1)-c1ccc(Cl)cc1CO3` the Potency was inconclusive: 9.2 µM [activator, partial curve]. With `Cc1cc(C(=O)NCCCc2ccccc2)no1` the Potency was inconclusive: 8.2 µM [activator, partial curve, poor fit]. In the case of `O=C(NCC1CCCO1)c1csc2c1CCCCC2` (configuration not stated), the Potency is reported as inconclusive: 18.4 µM [activator, single point]. In the case of `CCn1c(C(=O)N2CCC(C(=O)NCc3ccc4c(c3)OCO4)CC2)cc2sccc21`, the Potency is reported as active: 7.31 µM. In the case of `O=C(Nc1ncnc2c1C(c1ccccc1)c1c(ccc3ccccc13)O2)c1ccccc1` (configuration not stated), the Potency is reported as inconclusive: 20.6 µM [inhibitor, single point]. For `COc1ccc2[nH]c(=O)c(CN(Cc3nnnn3Cc3ccc(F)cc3)CC3CCCO3)cc2c1` (configuration not stated), the Potency was inconclusive: 29.1 µM [inhibitor, single point]. In the case of `CN(C(=O)c1ccc(NC(=O)Cc2ccc(NC(=O)C3CCCN(C(=O)C4CCCC4)C3)cc2)cc1)C1CC1` (configuration not stated), the Potency is reported as “inactive”. In the case of `CC(C)c1ccc(C2(C)NC(=O)N(CC(=O)NC3(C#N)CCCC3)C2=O)cc1` (configuration not stated), the Potency is reported as “inactive”. In the case of `COc1ccc(NC(=O)Nc2cccc3c2O[C@H](CN(C)C(=O)Nc2ccccc2)[C@@H](C)CN([C@H](C)CO)C3=O)cc1`, the Potency is reported as inconclusive: 18.3 µM [inhibitor, partial curve]. With `Cc1ccc(S(=O)(=O)NCc2ccccc2)cc1` the Potency was “inactive”. With `Cc1ccc(C(=O)N2CCN(Cc3ccc4c(c3)OCO4)CC2)cc1S(=O)(=O)N1CCOCC1` the Potency was “inactive”. For `O=C(c1cc(-c2cccs2)nc2ccccc12)N1CCN(c2ccccc2O)CC1`, the Potency was inconclusive: 20.6 µM [inhibitor, single point]. In the case of `CCN1/C(=C2\SC(=S)N(Cc3ccccc3)C2=O)Sc2ccccc21`, the Potency is reported as “inactive”. In the case of `O=C(Nc1cccc(S(=O)(=O)NC2=NCCCCC2)c1)c1cc(-c2ccccc2Cl)nc2ccccc12`, the Potency is reported as active: 23.1 µM. In the case of `CC(=O)Nc1ccc(S(=O)(=O)NCC(=O)OCc2ccccc2)cc1`, the Potency is reported as inconclusive: 23.1 µM [activator, partial curve, poor fit]. With `COc1ccc(S(=O)(=O)Nc2ccccc2C(=O)NCc2ccco2)cc1` the Potency was “inactive”. With `Oc1ccccc1CNc1cnc2ccccc2c1` the Potency was inconclusive: 2.31 µM [activator, full curve]. In the case of `COC(=O)c1cccc(NC(=O)CN(c2ccc3c(c2)OCO3)S(C)(=O)=O)c1C`, the Potency is reported as inconclusive: 0.146 µM [inhibitor, full curve, poor fit]. For `CCCn1nnc(NC(=O)c2ccc(-c3ccccc3)cc2)n1`, the Potency was inconclusive: 5.8 µM [activator, full curve]. For `CCN(CC)S(=O)(=O)c1cccc(-c2nnc(SCC(=O)c3ccc(Cl)s3)n2C)c1`, the Potency was inconclusive: 16.4 µM [inhibitor, partial curve, poor fit]. For `NC(=O)c1ccc(NC(=O)CSC(=O)c2ccccc2)cc1`, the Potency was inconclusive: 16.4 µM [activator, single point]. With `Cc1ccc(N(C)C(=O)N2CCN(S(=O)(=O)c3ccc(C)c(C)c3)CC2)cc1` the Potency was inconclusive: 23.1 µM [inhibitor, single point]. For `CC12CCC(C(=O)Nc3ccc(Br)cn3)(OC1=O)C2(C)C` (configuration not stated), the Potency was “inactive”. In the case of `COc1ccc2c(CC(=O)OCC(=O)Nc3sc4c(c3C#N)CCC(C)C4)coc2c1` (configuration not stated), the Potency is reported as inconclusive: 18.4 µM [activator, single point]. For `CCOC(=O)C1CCN(c2cc3c(cc2NC(=O)c2ccccc2Cl)n(C)c(=O)n3C)CC1`, the Potency was inconclusive: 14.6 µM [inhibitor, partial curve, poor fit]. For `CCN(CC)S(=O)(=O)c1cccc(NC(=O)Nc2cccc(C(F)(F)F)c2)c1`, the Potency was active: 13 µM. In the case of `Cc1nc(N2CCOCC2)nc(Oc2ccccc2F)c1[N+](=O)[O-]`, the Potency is reported as inconclusive: 16.4 µM [activator, partial curve]. With `O=C(COc1ccccc1[N+](=O)[O-])N/N=C/c1ccc(O)cc1` the Potency was inconclusive: 29.1 µM [activator, single point]. For `COC(=O)c1ccc2[nH]c(C)cc(=O)c2c1`, the Potency was “inactive”. For `COC(=O)c1c(C)n(-c2ccc(OC)cc2)c2ccc(O)cc12`, the Potency was inconclusive: 18.4 µM [inhibitor, partial curve]. In the case of `CCN(CC)CCCNC1=C(Cl)C(=O)c2ccccc2C1=O`, the Potency is reported as inconclusive: 23.1 µM [inhibitor, partial curve]. In the case of `CCCC(=O)NC(=S)Nc1ccc(C(C)=O)cc1`, the Potency is reported as inconclusive: 20.6 µM [activator, partial curve]. For `Cc1ccc(NCC(=O)c2ccccc2)cc1Cl`, the Potency was inconclusive: 20.6 µM [activator, partial curve]. In the case of `Cc1ccc2nc(SCc3nc4cc(Cl)ccc4c(=O)[nH]3)[nH]c2c1`, the Potency is reported as inconclusive: 20.6 µM [activator, partial curve, poor fit]. With `Cc1cccc2cc(CN(CCCO)C(=O)Nc3ccccc3Cl)c(=O)[nH]c12` the Potency was inconclusive: 10.3 µM [inhibitor, single point]. For `COc1ccc(OC)c(NC(=O)CSc2nnc(Cc3cccn3C)n2CCc2ccccc2)c1`, the Potency was inconclusive: 16.4 µM [inhibitor, single point]. In the case of `CC1CCc2c(C(=O)N3CCN(S(=O)(=O)c4cccs4)CC3)csc2C1` (configuration not stated), the Potency is reported as inconclusive: 29.1 µM [inhibitor, single point]. In the case of `Cc1ccc(Cn2cc(-c3ccccc3)nn2)cc1`, the Potency is reported as inconclusive: 23.1 µM [activator, partial curve]. For `CC(C)c1ccc(-c2nn(-c3ccccc3)cc2C(=O)NCC2CCCO2)cc1` (configuration not stated), the Potency was inconclusive: 18.3 µM [inhibitor, single point]. In the case of `Cc1noc(C)c1COC(=O)C(c1ccccc1)c1ccccc1`, the Potency is reported as inconclusive: 20.6 µM [activator, partial curve]. With `COc1ccc(C(=O)CSc2nnc(CN3CCCCC3)n2-c2ccc(Cl)cc2)cc1OC` the Potency was inconclusive: 29.1 µM [inhibitor, single point]. With `C#CCOCCOCCOCCNc1nc(N2CCOCC2)nc(N2CCN(C(=O)[C@H](CC(N)=O)n3cc([C@@H](N)C(C)C)nn3)CC2)n1` the Potency was inconclusive: 14.6 µM [activator, partial curve, poor fit]. For `COC(=O)c1cc2c(=O)c3ccccc3oc2nc1/C=C/N(C)C`, the Potency was “inactive”. In the case of `COc1ccccc1NC(=O)/C(N=Nc1ccc(C)c(S(=O)(=O)Nc2ccccc2Cl)c1)=C(\C)O`, the Potency is reported as inconclusive: 5.8 µM [inhibitor, full curve]. With `CCOC(=O)N1CCc2c(sc3nc4n(c(=O)c23)N=C(c2ccc(OC)cc2)CS4)C1` the Potency was inconclusive: 18.3 µM [inhibitor, partial curve, poor fit]. For `COc1ccc2cc(C(c3nnnn3CCc3ccccc3)N3CCC(O)CC3)c(=O)[nH]c2c1` (configuration not stated), the Potency was “inactive”. With `CCc1ccc(NC(=O)COc2ccc(F)cc2C(=O)c2cnn(-c3ccccc3)c2)cc1` the Potency was inconclusive: 4.11 µM [activator, single point]. For `Nc1cc(N)cc(C(=O)OCC(=O)Nc2cc(S(=O)(=O)N3CCCCC3)ccc2Cl)c1`, the Potency was “inactive”. In the case of `O=C(NCCc1c[nH]c2ccccc12)C(=O)NCC1OCCCN1S(=O)(=O)c1ccccc1` (configuration not stated), the Potency is reported as inconclusive: 29.1 µM [inhibitor, single point].
